Results on 3 substances are retold here after paper PMC5392987.

Protein sequences, listed by entry. Tags and fused reporters are not part of them. Lines headed by an entry give the natural chain unless they say otherwise; changes in a name come on top.
UniProt Q9VNG2: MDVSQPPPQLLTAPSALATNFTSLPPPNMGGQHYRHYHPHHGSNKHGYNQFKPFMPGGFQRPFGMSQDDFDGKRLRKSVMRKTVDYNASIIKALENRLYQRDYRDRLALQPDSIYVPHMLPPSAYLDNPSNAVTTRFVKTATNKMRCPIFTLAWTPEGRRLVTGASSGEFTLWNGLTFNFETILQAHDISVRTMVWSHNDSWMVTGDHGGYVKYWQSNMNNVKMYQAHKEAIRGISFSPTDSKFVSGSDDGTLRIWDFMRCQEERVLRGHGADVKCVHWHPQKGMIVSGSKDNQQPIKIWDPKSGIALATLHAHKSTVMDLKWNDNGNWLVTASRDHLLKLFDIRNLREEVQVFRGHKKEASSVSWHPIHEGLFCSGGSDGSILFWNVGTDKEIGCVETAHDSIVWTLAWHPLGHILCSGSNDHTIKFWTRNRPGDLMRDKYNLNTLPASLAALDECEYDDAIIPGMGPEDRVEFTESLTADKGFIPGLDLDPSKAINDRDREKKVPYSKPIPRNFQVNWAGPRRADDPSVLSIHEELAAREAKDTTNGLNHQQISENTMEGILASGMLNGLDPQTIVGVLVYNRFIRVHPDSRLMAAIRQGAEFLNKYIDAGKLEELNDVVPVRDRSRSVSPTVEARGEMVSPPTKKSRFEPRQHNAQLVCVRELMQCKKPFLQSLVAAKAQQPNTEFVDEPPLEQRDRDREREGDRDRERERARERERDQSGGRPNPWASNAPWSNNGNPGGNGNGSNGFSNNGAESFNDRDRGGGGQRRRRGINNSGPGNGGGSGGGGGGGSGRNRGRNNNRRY

No constants are given. Whether binding was seen depends on the method and setting. In cells and extracts the contact can be indirect. Here binding means that the protein was enriched with, or labelled near, the bait; the list need not be complete.

The assay addresses T1, Symplekin (endogenous) (Drosophila melanogaster (endogenous in Dmel-2 cells)) (UniProt Q8MSU4).
T1 sequence: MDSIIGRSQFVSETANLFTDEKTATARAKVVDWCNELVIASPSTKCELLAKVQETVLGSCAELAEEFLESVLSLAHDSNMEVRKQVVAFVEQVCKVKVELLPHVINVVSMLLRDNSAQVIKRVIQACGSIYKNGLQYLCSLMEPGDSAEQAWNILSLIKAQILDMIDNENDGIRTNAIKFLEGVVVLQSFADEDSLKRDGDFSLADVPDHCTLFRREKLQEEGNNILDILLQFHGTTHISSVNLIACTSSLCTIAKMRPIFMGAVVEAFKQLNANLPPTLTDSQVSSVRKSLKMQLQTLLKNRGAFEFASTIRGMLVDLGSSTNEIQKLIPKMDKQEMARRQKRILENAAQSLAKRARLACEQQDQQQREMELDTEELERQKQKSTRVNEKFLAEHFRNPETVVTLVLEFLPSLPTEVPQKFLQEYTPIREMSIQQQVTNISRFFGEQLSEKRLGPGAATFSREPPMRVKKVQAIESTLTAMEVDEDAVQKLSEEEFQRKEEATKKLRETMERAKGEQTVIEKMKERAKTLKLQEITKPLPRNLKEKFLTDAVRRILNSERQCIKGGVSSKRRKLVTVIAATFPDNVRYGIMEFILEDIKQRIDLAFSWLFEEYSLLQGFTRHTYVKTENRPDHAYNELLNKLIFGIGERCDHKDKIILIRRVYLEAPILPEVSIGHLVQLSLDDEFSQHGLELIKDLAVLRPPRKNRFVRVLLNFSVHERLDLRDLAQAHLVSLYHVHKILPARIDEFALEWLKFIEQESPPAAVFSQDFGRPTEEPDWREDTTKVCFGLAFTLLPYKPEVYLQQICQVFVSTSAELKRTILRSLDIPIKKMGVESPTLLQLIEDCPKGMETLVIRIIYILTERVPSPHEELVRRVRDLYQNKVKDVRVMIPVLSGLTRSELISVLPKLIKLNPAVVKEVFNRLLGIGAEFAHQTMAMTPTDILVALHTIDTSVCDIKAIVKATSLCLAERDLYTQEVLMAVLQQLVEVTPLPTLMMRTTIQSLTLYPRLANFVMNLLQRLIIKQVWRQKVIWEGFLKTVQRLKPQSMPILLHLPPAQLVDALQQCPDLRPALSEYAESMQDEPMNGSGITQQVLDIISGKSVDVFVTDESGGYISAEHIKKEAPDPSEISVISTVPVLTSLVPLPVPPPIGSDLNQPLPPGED
Nature of the assay: affinity purification with mass spectrometry; endogenous Symplekin immunoprecipitated from crude Drosophila culture cell nuclear extract; bands cut from a Coomassie-stained SDS-PAGE gel and identified by MS; anti-Myc as control.

Regarding CstF77 (endogenous), the binding result is listed as “binds”.
Under Hsc70 (endogenous) stands “binds”; under “WDR33 (CG1109) (endogenous) (from UniProt Q9VNG2)”, “binds”.
